According to paper PMC11808628:
These are yes or no findings as the source states them, for the method shown. Some binding calls cover weakened binding; strength is not graded here. For some assays here: Where a sequence is shown, tags or fusion partners need not be part of it.

Amino acid sequences for entries named in this document (tags omitted).
UniProt Q9JIR4: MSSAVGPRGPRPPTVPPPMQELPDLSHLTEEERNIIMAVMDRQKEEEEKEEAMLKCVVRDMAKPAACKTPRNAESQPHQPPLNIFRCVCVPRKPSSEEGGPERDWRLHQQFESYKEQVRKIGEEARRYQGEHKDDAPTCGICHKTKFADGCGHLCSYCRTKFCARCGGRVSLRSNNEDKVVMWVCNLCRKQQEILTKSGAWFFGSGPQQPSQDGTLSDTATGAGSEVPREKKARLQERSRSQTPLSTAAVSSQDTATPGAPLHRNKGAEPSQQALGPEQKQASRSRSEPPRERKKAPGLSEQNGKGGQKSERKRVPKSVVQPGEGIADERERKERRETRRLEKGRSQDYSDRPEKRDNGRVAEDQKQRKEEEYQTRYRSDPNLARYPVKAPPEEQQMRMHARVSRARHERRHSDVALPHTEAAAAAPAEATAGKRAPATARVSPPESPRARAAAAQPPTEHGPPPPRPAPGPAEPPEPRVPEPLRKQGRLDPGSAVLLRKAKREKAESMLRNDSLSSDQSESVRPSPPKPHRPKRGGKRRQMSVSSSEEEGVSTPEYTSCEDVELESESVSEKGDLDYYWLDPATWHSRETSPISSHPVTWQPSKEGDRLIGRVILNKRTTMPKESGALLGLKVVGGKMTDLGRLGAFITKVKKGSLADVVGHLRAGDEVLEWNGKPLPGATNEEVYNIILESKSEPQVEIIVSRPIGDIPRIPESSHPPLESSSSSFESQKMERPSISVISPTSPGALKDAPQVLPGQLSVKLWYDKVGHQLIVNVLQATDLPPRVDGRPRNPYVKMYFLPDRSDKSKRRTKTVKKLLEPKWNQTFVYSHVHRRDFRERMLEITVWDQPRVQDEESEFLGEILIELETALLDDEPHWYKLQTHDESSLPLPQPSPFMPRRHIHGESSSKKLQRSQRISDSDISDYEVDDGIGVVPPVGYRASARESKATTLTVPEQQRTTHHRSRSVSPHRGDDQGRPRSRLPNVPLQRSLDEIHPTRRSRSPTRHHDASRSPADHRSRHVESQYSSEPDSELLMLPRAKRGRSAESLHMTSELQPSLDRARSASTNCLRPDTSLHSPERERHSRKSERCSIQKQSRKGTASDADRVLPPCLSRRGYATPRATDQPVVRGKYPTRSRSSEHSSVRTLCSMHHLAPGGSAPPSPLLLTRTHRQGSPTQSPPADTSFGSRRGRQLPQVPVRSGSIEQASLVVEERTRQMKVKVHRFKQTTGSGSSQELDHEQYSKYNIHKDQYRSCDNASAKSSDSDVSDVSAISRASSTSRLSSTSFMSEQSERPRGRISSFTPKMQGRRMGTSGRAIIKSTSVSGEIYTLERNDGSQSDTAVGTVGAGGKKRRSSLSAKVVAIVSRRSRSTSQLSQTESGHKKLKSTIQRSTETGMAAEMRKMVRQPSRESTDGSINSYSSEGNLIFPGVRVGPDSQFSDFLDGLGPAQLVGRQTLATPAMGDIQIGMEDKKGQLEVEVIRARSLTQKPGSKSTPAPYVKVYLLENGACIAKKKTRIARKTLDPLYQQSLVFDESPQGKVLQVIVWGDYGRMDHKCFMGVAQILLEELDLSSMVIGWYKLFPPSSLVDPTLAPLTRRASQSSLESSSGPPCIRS
UniProt Q9WTS5: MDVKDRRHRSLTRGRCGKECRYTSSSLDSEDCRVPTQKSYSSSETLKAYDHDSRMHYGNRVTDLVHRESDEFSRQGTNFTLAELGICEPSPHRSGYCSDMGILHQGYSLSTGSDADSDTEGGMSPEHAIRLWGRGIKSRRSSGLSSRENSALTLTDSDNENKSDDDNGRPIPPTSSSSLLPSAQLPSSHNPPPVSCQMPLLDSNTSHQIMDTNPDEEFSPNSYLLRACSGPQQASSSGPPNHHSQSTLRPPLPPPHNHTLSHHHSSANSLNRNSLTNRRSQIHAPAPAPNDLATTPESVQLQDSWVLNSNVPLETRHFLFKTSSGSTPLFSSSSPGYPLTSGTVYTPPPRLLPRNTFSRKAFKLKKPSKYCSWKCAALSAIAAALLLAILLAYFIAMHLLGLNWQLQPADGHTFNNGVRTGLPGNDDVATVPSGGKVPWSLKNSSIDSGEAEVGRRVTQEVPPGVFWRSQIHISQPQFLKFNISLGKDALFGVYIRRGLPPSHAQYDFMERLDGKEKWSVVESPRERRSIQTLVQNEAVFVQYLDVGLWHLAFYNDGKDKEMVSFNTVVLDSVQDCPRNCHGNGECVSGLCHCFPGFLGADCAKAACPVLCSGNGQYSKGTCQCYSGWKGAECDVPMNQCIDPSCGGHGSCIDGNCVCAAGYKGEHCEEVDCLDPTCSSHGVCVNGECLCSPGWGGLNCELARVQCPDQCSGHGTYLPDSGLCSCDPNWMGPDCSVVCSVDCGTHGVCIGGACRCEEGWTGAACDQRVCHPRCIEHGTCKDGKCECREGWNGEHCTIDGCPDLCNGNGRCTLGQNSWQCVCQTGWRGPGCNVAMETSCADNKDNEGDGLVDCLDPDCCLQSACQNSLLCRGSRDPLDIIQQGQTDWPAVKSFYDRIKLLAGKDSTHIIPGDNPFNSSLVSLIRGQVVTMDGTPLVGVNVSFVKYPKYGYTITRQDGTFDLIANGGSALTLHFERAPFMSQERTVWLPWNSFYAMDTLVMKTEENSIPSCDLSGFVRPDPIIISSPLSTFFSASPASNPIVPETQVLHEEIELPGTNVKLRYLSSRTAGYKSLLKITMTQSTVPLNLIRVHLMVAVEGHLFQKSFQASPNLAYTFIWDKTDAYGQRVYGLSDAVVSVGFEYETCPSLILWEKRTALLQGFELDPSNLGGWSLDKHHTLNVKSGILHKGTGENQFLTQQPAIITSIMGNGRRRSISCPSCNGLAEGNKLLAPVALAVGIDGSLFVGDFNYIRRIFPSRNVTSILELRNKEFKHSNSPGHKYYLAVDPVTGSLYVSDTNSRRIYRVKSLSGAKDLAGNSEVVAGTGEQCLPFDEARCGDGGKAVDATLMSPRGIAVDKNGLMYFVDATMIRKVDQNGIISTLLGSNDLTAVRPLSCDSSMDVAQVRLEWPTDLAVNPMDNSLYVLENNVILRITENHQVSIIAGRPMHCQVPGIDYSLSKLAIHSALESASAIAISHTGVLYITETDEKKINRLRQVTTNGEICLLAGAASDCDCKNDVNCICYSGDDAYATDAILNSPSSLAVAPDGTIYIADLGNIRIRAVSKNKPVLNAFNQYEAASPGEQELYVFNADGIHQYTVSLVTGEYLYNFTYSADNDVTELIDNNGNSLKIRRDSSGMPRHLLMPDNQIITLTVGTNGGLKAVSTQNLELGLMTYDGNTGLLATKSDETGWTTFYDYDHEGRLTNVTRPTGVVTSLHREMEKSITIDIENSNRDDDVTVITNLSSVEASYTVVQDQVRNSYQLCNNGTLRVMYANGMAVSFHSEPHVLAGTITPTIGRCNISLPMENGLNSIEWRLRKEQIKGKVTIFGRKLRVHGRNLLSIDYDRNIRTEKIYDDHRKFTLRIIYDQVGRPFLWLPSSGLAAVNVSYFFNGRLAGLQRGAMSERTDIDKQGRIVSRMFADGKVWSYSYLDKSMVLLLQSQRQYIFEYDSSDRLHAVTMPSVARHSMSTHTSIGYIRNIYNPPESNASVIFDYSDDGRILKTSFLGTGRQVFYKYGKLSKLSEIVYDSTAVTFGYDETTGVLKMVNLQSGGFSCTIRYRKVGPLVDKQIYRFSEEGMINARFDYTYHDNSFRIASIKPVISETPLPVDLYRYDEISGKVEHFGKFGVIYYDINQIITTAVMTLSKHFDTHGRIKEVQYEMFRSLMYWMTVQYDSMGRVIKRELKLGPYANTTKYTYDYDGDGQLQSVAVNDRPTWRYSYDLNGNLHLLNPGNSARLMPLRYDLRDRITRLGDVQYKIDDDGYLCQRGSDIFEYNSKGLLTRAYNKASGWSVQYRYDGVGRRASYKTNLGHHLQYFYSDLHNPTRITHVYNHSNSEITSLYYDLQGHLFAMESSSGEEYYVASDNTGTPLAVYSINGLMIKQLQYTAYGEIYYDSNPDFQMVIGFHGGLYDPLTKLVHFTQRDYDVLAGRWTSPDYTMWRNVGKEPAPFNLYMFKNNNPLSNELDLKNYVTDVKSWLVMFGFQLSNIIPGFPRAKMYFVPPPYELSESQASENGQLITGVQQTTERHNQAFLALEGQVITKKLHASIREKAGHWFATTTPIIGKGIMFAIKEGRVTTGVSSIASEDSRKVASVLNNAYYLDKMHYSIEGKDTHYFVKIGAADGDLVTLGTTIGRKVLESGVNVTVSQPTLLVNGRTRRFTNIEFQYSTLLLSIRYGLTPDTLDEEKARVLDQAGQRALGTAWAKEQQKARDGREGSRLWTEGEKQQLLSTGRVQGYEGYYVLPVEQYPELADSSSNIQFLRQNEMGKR

B1: RIM-BP2, purified recombinant (protein, UniProt Q9JIR1 1-1049)
chain: MREAAERRQQLELEHEQALAILNAKQQEIQLLQQSKVRELEEKCRVQSEQFNLLSRDLEKFRQHAGSIDLLGSNSVALLDVPLAPGKPFSQYMNGLATSIHKGHEGPTGHYSVIGDYIPLSGDKLESPCVKPSFLLRSSSPRCRFESEMDDDRSSNKSKHSSSGKVHLCVARYSYNPFDGPNENPEAELPLTAGKYLYVYGDMDEDGFYEGELLDGQRGLVPSNFVDFIQDNESRFAGTLGSEQDQNFLNHSGISLERDSILHLHSPTQVDSGITDNGGGTLDVNIDDIGEDIVPYPRKITLIKQLAKSVIVGWEPPAVPPGWGTVSSYNVLVDKETRMSLALGRRTKALIEKLNTAACTYRISVQCVTSRGNSDELQCTLLVGKDVVVAPSQLRVDNITQISAQLSWLPTNSNYSHIIFLNEEELDIVKAARYKYQFFNLRPNMAYKVKVLAQPHQMPWQLPLEQREKDEACVEFSTLPAGPPAPPQDVTVQAGATTASVQVSWKPPALTPTGLSNGANVTGYGVYAKGQRVAEVIAPTANGAAVELVRLRSLEAKAVSVRTLSAQGESMDSALAAIPPDLLVPPAPHPRTAPPPKPLTSDMDTKDLGPHVKVDESWEQSRPPGPAHGHMLEPPDMHSTGPGRRSPSPSRILPQPQGAPVSTTVAKAMAREAAQRVAETSKLEKRSLFLEQSSAGPYANSDEEDGYASPEVKRRGTSVDDFLKGSELGQQPHCCHGDEYHTESSRGSDLSDIMEEDEEELYSEMQLEDGGRRRPSGTSHNALKILGNSALMGRGDRMEHVSRRYSHSGGGPQRHRPMAPSIDEYTGRDHLSPDFYDESETDPGAEELPARIFVALFDYDPLTMSPNPDAAEEELPFKEGQIIKVYGDKDADGFYRGETCARLGLIPCNMVSEIHADDEEMMDQLLRQGFLPLNTPVEKIERSRRSGRGHSVPTRRMVALYDYDPRESSPNVDVEAELLFCTGDIITVFGEIDEDGFYYGELNGQKGLVPSNFLEEVPDDVEVHLSDAPPHYSHDPPMRTKAKRVSQPP
modifications: labeled by iFluor-405 (imaging experiments)
B2: Flag-tagged RIM-BP2 (protein, UniProt Q9JIR1 1-1049)
chain: MREAAERRQQLELEHEQALAILNAKQQEIQLLQQSKVRELEEKCRVQSEQFNLLSRDLEKFRQHAGSIDLLGSNSVALLDVPLAPGKPFSQYMNGLATSIHKGHEGPTGHYSVIGDYIPLSGDKLESPCVKPSFLLRSSSPRCRFESEMDDDRSSNKSKHSSSGKVHLCVARYSYNPFDGPNENPEAELPLTAGKYLYVYGDMDEDGFYEGELLDGQRGLVPSNFVDFIQDNESRFAGTLGSEQDQNFLNHSGISLERDSILHLHSPTQVDSGITDNGGGTLDVNIDDIGEDIVPYPRKITLIKQLAKSVIVGWEPPAVPPGWGTVSSYNVLVDKETRMSLALGRRTKALIEKLNTAACTYRISVQCVTSRGNSDELQCTLLVGKDVVVAPSQLRVDNITQISAQLSWLPTNSNYSHIIFLNEEELDIVKAARYKYQFFNLRPNMAYKVKVLAQPHQMPWQLPLEQREKDEACVEFSTLPAGPPAPPQDVTVQAGATTASVQVSWKPPALTPTGLSNGANVTGYGVYAKGQRVAEVIAPTANGAAVELVRLRSLEAKAVSVRTLSAQGESMDSALAAIPPDLLVPPAPHPRTAPPPKPLTSDMDTKDLGPHVKVDESWEQSRPPGPAHGHMLEPPDMHSTGPGRRSPSPSRILPQPQGAPVSTTVAKAMAREAAQRVAETSKLEKRSLFLEQSSAGPYANSDEEDGYASPEVKRRGTSVDDFLKGSELGQQPHCCHGDEYHTESSRGSDLSDIMEEDEEELYSEMQLEDGGRRRPSGTSHNALKILGNSALMGRGDRMEHVSRRYSHSGGGPQRHRPMAPSIDEYTGRDHLSPDFYDESETDPGAEELPARIFVALFDYDPLTMSPNPDAAEEELPFKEGQIIKVYGDKDADGFYRGETCARLGLIPCNMVSEIHADDEEMMDQLLRQGFLPLNTPVEKIERSRRSGRGHSVPTRRMVALYDYDPRESSPNVDVEAELLFCTGDIITVFGEIDEDGFYYGELNGQKGLVPSNFLEEVPDDVEVHLSDAPPHYSHDPPMRTKAKRVSQPP

Columns and labels:
[1] = biological target: RIM1, purified recombinant (UniProt Q9JIR4); assay: imaging of recruitment into LLPS condensates; purified proteins; RIM1 and RIM-BP2 10 μM each (Fig. 2) or 20 μM each (Fig. 3), Tenm3 proteins 1 μM; iFluor-labelled proteins imaged; both purified
Teneurin-1 = Teneurin-1 (UniProt Q9WTS4); assay: membrane-recruitment assay (imaging of transfected cells); transfected HEK293/HEK293T cells co-expressing Flag-tagged RIM1 or RIM-BP2 constructs with HA-tagged teneurins; Flag and HA epitopes imaged
Teneurin-4 = Teneurin-4 (UniProt Q3UHK6); assay: as above
Teneurin-2 = Teneurin-2 (UniProt Q9WTS5); assay: as above
HA-tagged Tenm3^WT = HA-tagged Tenm3^WT (UniProt Q9WTS6); assay: as above

| Binder | binding [1] | binding (Teneurin-1) | binding (Teneurin-4) | binding (Teneurin-2) | binding (HA-tagged Tenm3^WT) |
| --- | --- | --- | --- | --- | --- |
| B1 | binds |  |  |  |  |
| B2 |  | no binding | no binding | no binding | no binding |
